This is one part of the list. The main result of the screen is listed elsewhere. These columns were measured beside it and carry no call. Most of these compounds were active or inconclusive in the main read-out, so they are no random draw. The note in brackets gives the kind of curve behind each potency; many fits are weak.

This assay is described as follows: qHTS Assay for Identifying the Cell-Membrane Permeable IMPase Inhibitors. The conditions noted are these: CHO-M1 cells, IP1 accumulation, HTRF TR-FRET ratio; measured here: donor channel 620 nm AC50.
Turning to `CN1CCc2cccc3c2[C@@H]1Cc1ccc(O)c(O)c1-3`, the half-maximal activity concentration (AC50) was 79.4 nM [falling, full curve, poor fit].

As for `COc1cccc(C2(CSc3nnc(-c4cc(OC)c(OC)c(OC)c4)o3)OCCO2)c1`, the concentration at half-maximal activity (AC50) was 794 nM [falling, full curve].

Take `CCc1ccccc1NC(=O)c1cnc2scc(C)n2c1=O`: the AC50 is 5620 nM [rising, single point].

Take `CCOC(=O)/C(C#N)=C1/C=C(C)NC(c2ccccc2O)=N1`: the AC50 was 31600 nM [rising, single point].

For the compound `COC(=O)CSc1nc2ccccc2c(=O)n1C`, the concentration at half-maximal activity (AC50) is 251 nM [falling, full curve, poor fit].

As to `CCCCOC(=O)CNc1n[nH]c(=S)[nH]c1=O`, the concentration at half-maximal activity (AC50) was 12600 nM [rising, partial curve].

On to `CC(C)(C)NC(=O)C(=O)N/N=C/c1cccs1`, for which the AC50 was 5010 nM [falling, single point].

For `O=C(NCc1ccccc1)c1cc(=O)nc2sc(-c3ccccc3)nn12`, the AC50 is 5010 nM [rising, partial curve].

In the case of `O=C(CCCNS(=O)(=O)c1cccc2nsnc12)NC1CCCCC1`, the half-maximal activity concentration (AC50) is 3160 nM [falling, single point].

With `COc1ccc(N2CCN(Cc3cc4c(cc3O)CCC4)CC2)cc1`, the concentration at half-maximal activity (AC50) was 31600 nM [falling, single point].

Consider `COc1ccc(C(=O)NNC(=S)NC(=O)c2cc(-c3ccccc3)nc3ccccc23)cc1`, for which the AC50 is 2510 nM [falling, partial curve, poor fit].

Regarding `OC(CN1CCC(Cc2ccc(F)cc2)CC1)c1ccc(Cl)cc1` (stereo not drawn), the AC50 is 1580 nM [falling, full curve].

For `Cc1cccc(N(C(=O)c2ccc(CN3CCOCC3)o2)C(C(=O)NC(C)(C)C)c2ccc(F)cc2)c1` (stereo not drawn), the concentration at half-maximal activity (AC50) was 126 nM [rising, single point].

Regarding `COc1ccc(CCn2nnnc2C(c2ccccc2)N2CCN(C)CC2)cc1OC` (stereo not drawn), the AC50 was 126 nM [falling, full curve, poor fit].

For `Cc1ccc2[nH]c3c(=O)n(CCc4cnc[nH]4)cnc3c2c1`, the AC50 was 398 nM [falling, partial curve, poor fit].

Take `COc1ccc(C(=O)Nn2c(C3CCC3)nc3ccccc3c2=O)c(OC)c1`: the half-maximal activity concentration (AC50) was 631 nM [rising, single point].

Consider `CCC1CCc2c(sc(NC(=O)C3c4ccccc4Oc4ccccc43)c2C#N)C1` (stereo not drawn), for which the AC50 was 89.1 nM [falling, full curve, poor fit].

In the case of `COC(=O)[C@H](CC(C)C)NC(=O)N1CCN(c2cccc(C(F)(F)F)c2)CC1`, the half-maximal activity concentration (AC50) is 100 nM [falling, single point].
